# Experimental data as given in the supplement of paper PMC9549374.
# The list shows a part of the results. Rule as the data show it: active = 2-fold of DMSO or more and inactive = the rest. Single values of this set are uncertain. Some low values are a fixed figure set by the source, not a measured ratio.
# System: CM7/1-hgem mouse ES cell-derived cardiomyocytes
# Test: maximal number of mAG-hGem(1/110)-positive cardiomyocytes over 96 h, fold-change vs DMSO; higher = more cardiomyocyte cell cycle activity
# Settings: 1 µM; 96 (max over 12 h time points) h
row,SMILES,maximal number
1,C[C@H]1O[C@@H](n2cc(F)c(=O)[nH]c2=O)[C@H](O)[C@@H]1O,inactive: 1
2,CC(C)C(=O)Nc1ccc([N+](=O)[O-])c(C(F)(F)F)c1,inactive: 1
3,COc1ccc(C(C)=O)c(OC)c1,inactive: 1
4,C[C@]1(Cn2ccnn2)[C@H](C(=O)O)N2C(=O)C[C@H]2S1(=O)=O,inactive: 1
5,C/C=N/N(C)C=O,inactive: 1
6,CC1(C)C(=O)C=C[C@]2(C)[C@H]3CC[C@@]4(C)[C@H](c5ccoc5)OC(=O)[C@H]5O[C@]54[C@]3(C)C(=O)C[C@@H]12,inactive: 1
7,CC[N+](C)(C)c1cccc(O)c1,inactive: 1
8,COc1cc(C(=O)OCCCN2CCCN(CCCOC(=O)c3cc(OC)c(OC)c(OC)c3)CC2)cc(OC)c1OC,inactive: 1
9,O=C(CCCN1CC=C(n2c(=O)[nH]c3ccccc32)CC1)c1ccc(F)cc1,inactive: 1
10,O=C(O)c1cccnc1C(=O)O,inactive: 1
11,Nc1nc(O)c2ncn(CCC(CO)CO)c2n1,inactive: 0
12,CN(C)C(=O)C(CCN1CCC(O)(c2ccc(Cl)cc2)CC1)(c1ccccc1)c1ccccc1,inactive: 0
13,COC(=O)C[C@H]1C(C)(C)C(=O)[C@@H]2CC3=C(CC[C@]4(C)C3=CC(=O)O[C@H]4c3ccoc3)[C@@]1(C)C2=O,inactive: 1
14,COc1cc(CNC(=O)CCCC/C=C/C(C)C)ccc1O,inactive: 1
15,CC(=O)O[C@H]1CC[C@]2(C)[C@H]3CC=C4[C@@H]5CC(C)(C)CC[C@]5(C(=O)O)CC[C@@]4(C)[C@]3(C)CC[C@H]2C1(C)C,inactive: 0
16,COC(=O)CC1C(C)(C)C(OC(C)=O)[C@@H]2[C@@H](OC(C)=O)[C@]34O[C@@]2(O)[C@]1(C)C3CC[C@]1(C)C4=CC(=O)O[C@H]1c1ccoc1 (some centres undefined),inactive: 1
17,O=c1ccc2cc(O)c(O)cc2o1,inactive: 1

row,SMILES,maximal number
1,COC(=O)C[C@H]1C2(C)CC34OC5(C)O[C@@]6([C@H](OC)C(OC(=O)C(C)C)[C@]7(C)C(/C(=C(/OC)C(C)C)C(=O)O[C@H]7c7ccoc7)[C@@]6(O5)[C@H](OC)[C@@]3(OC)C2OC(C)=O)[C@]14C (some centres undefined),inactive: 1
2,COC(=O)Nc1nc2cc(C(=O)c3ccccc3)ccc2[nH]1,inactive: 1
3,O=C(O)c1cc(O)ccc1O,inactive: 1
4,COC(=O)C1=C(C)NC(C)=C(C(=O)OCCN2CCN(C(c3ccccc3)c3ccccc3)CC2)C1c1cccc([N+](=O)[O-])c1 (centres undefined),inactive: 0
5,C[C@@H]1CN(c2c(F)c(N)c3c(=O)c(C(=O)O)cn(C4CC4)c3c2F)C[C@H](C)N1,inactive: 1
6,COc1cc([C@@H]2c3cc4c(cc3[C@@H](O[C@@H]3O[C@@H]5CO[C@@H](c6cccs6)O[C@H]5[C@H](O)[C@H]3O)[C@H]3COC(=O)[C@H]23)OCO4)cc(OC)c1O,inactive: 1
7,O=C(OCC(O)CO)c1ccccc1Nc1ccnc2cc(Cl)ccc12 (centres undefined),inactive: 0.5
8,C=CC1=C(C)/C(=C/c2[nH]c(Cc3[nH]c(/C=C4\NC(=O)C(C)=C4C=C)c(C)c3CCC(=O)O)c(CCC(=O)O)c2C)NC1=O,inactive: 1
9,CC(=O)O[C@H]1CC[C@@]2(C)[C@@H](CC[C@@H]3[C@@H]2CC(=O)[C@]2(C)[C@@H]4[C@H](C[C@@H]32)O[C@]2(CC[C@@H](C)CO2)[C@H]4C)C1,inactive: 1
10,CC1(C)CC2C1CC[C@]1(CBr)CCC3C(CC(=O)O)C(=O)O[C@@]32C1 (some centres undefined) [BROMO-3-HYDROXY-4-(SUCCIN-2-YL)-CARYOLANE gamma-LACTONE],inactive: 1
11,COc1cc(C)c(C(=O)Oc2cc(C)c(C(=O)O)c(O)c2C)c(OC)c1C,inactive: 0
12,CC1(C)[C@@H](O)CC[C@]2(C)[C@H]3C(=O)C=C4[C@@H]5C[C@@](C)(C(=O)O)CC[C@]5(C)CC[C@@]4(C)[C@]3(C)CC[C@@H]12,inactive: 1
13,CCCCCCCCCCCCC[N+](C)(C)Cc1ccccc1,inactive: 1
14,CC1(C)C(=O)C=CC2(C)C1C=CC1(C)C2CCC2(C)C(c3ccoc3)OC(=O)C3OC312 (centres undefined),inactive: 1
15,COC(=O)[C@H]1[C@H]2C[C@H]3c4[nH]c5ccccc5c4CCN3C[C@@H]2CC[C@@H]1O,inactive: 1
16,Fc1ccc(C(c2ccc(F)cc2)N2CCN(C/C=C/c3ccccc3)CC2)cc1,inactive: 1
17,CCN(CC)CCNC(=O)c1ccc(NC(C)=O)cc1,inactive: 1

# In another format: entries from further up.
row	SMILES	maximal number
2	COC(=O)Nc1nc2cc(C(=O)c3ccccc3)ccc2[nH]1	inactive: 1
3	O=C(O)c1cc(O)ccc1O	inactive: 1
